# From paper PMC3527510, “Bin2 Is a Membrane Sculpting N-BAR Protein That Influences Leucocyte Podosomes, Motility and Phagocytosis” (PLoS ONE, 2012)
# Sequences of proteins named here, by UniProt entry; tags and fusion partners are left off.
# UniProt O35179: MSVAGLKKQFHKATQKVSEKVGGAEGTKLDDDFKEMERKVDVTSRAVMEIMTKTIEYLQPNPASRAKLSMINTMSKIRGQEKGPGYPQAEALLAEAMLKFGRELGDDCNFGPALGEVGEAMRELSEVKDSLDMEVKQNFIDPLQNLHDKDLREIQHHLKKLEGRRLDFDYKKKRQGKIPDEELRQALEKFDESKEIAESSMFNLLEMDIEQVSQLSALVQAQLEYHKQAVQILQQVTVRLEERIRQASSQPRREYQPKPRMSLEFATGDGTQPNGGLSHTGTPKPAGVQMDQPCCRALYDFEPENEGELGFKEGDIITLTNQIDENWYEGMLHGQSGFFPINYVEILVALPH
# Results are given in words; binding and its absence hold for the method and conditions named. Tags and fused reporters may be left off the sequences shown.
# Biological target: T1, GST-hBin2 N-BAR (human) (UniProt Q9UBW5)
# T1 sequence: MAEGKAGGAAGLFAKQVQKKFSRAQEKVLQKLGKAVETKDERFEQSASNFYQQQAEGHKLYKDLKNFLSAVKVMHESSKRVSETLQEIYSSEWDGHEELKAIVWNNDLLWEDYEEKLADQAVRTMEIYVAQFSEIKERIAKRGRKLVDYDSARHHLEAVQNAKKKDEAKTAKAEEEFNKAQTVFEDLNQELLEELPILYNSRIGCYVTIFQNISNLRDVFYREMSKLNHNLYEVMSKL
# Experiment: pull-down; 10 µg GST fusion or GST on glutathione beads with rising amounts of purified prey, 60 min; 20 mM HEPES pH 7.5, 150 mM NaCl, 1 mM DTT, 0.1% Triton X-100; SDS-PAGE, Coomassie; both purified
substance,measurement,value
Full-length rat Endophilin A1 (from UniProt O35179 1-352),binding,no binding (tested: up to 50 µg rat Endophilin A1)
